Assay results taken from patent US7956194B2, “Microbiocidal (E.G. fungicidal) 1,2,3-triazole derivatives” (Syngenta Crop Protection, Inc., priority 2002, dated 2011).
Some entries share one result that the patent states for a list of compounds. Some compounds share one range, which may span the group rather than tell each member.

Tests used:
Format in all cases: in vivo
Podosphaera leucotricha = assay: Action against Podosphaera leucotricha/apple (powdery mildew on apple); settings: apple seedlings cv. McIntosh, 0.02% active ingredient sprayed one day before inoculation, assessed after 12 days incubation
Helminthosporium teres = assay: Action against Helminthosporium teres/barley (net blotch on barley); settings: barley plants cv. Regina, 0.02% active ingredient sprayed two days before inoculation, assessed after 4 days incubation
Alternaria solani = assay: Action against Alternaria solani/tomato (early blight on tomatoes); settings: tomato plants cv. Roter Gnom, 0.02% active ingredient sprayed two days before inoculation, assessed after 3 days incubation
Erysiphe graminis = assay: Action against Erysiphe graminis/barley (powdery mildew on barley); settings: barley plants cv. Regina, 0.02% active ingredient sprayed one day before inoculation, assessed after 6 days incubation
Botrytis cinerea [1] = assay: Action against Botrytis cinerea/grape (Botrytis on grapes); settings: grape seedlings cv. Gutedel, 0.02% active ingredient sprayed two days before inoculation, assessed after 4 days incubation
Botrytis cinerea [2] = assay: Action against Botrytis cinerea/tomato (Botrytis on tomatoes); settings: tomato plants cv. Roter Gnom, 0.02% active ingredient sprayed two days before inoculation, assessed after 4 days incubation
Puccinia recondita = assay: Action against Puccinia recondita/wheat (brownrust on wheat); settings: wheat plants cv. Arina, 0.02% active ingredient sprayed one day before inoculation, assessed 10 days after inoculation
Venturia inaequalis = assay: Action against Venturia inaequalis/apple (scab on apple); settings: apple seedlings cv. McIntosh, 0.02% active ingredient sprayed one day before inoculation, assessed after 4+4+4 days incubation
Uncinula necator = assay: Action against Uncinula necator/grape (powdery mildew on grapes); settings: grape seedlings cv. Gutedel, 0.02% active ingredient sprayed one day before inoculation, assessed after 7 days incubation
Septoria nodorum = assay: Action against Septoria nodorum/wheat (Septoria leaf spot on wheat); settings: wheat plants cv. Arina, 0.02% active ingredient sprayed one day before inoculation, assessed 11 days after inoculation

## Cn1nc(C(=O)Nc2ccccc2-c2ccc(F)cc2)c(C(F)(F)F)n1 [Compound 2.005]
Podosphaera leucotricha
  infestation: < 20%
Helminthosporium teres
  disease incidence: < 20%
Alternaria solani
  disease incidence: < 20%

## Cn1nc(C(=O)Nc2ccccc2-c2ccc(Cl)cc2)c(C(F)(F)F)n1 [Compound 2.017]
Erysiphe graminis
  infestation: < 20%
Helminthosporium teres
  disease incidence: < 20%

## Cn1nc(C(=O)Nc2ccccc2-c2ccc(Br)cc2)c(C(F)(F)F)n1 [Compound 2.029]
Erysiphe graminis
  infestation: < 20%
Botrytis cinerea [1]
  disease incidence: < 50%
Botrytis cinerea [2]
  disease incidence: < 50%
Helminthosporium teres
  disease incidence: < 20%
Alternaria solani
  disease incidence: < 20%

## CON=Cc1ccc(-c2ccccc2NC(=O)c2nn(C)nc2C(F)(F)F)cc1 [Compound 2.067]
Helminthosporium teres
  disease incidence: < 20%

## CCON=Cc1ccc(-c2ccccc2NC(=O)c2nn(C)nc2C(F)(F)F)cc1 [Compound 2.070]
Helminthosporium teres
  disease incidence: < 20%

## CC(CC(C)(C)C)c1ccccc1NC(=O)c1nn(C)nc1C(F)(F)F (centres unmarked) [Compound 2.273]
Puccinia recondita
  infestation: 0-5%
Erysiphe graminis
  infestation: < 20%
Helminthosporium teres
  disease incidence: < 20%

## Cn1nc(C(=O)Nc2ccccc2-c2ccc(F)cc2)c(C(F)F)n1 [Compound 3.005]
Erysiphe graminis
  infestation: < 20%
Botrytis cinerea [2]
  disease incidence: < 50%
Helminthosporium teres
  disease incidence: < 20%
Alternaria solani
  disease incidence: < 20%

## Cn1nc(C(=O)Nc2cc(Cl)ccc2-c2ccccc2)c(C(F)F)n1 [Compound 3.017, 5-difluoromethyl-2-methyl-2H-1,2,3-triazole-4-carboxylic acid (4-chloro-biphenyl-2-yl)-amide]
Podosphaera leucotricha
  infestation: < 20%
Venturia inaequalis
  infestation: < 20%
Erysiphe graminis
  infestation: < 20%
Botrytis cinerea [1]
  disease incidence: < 50%
Helminthosporium teres
  disease incidence: < 20%
Alternaria solani
  disease incidence: < 20%
Uncinula necator
  disease incidence: < 20%

## Cn1nc(C(=O)Nc2ccccc2-c2ccc(Br)cc2)c(C(F)F)n1 [Compound 3.029]
Erysiphe graminis
  infestation: < 20%
Botrytis cinerea [2]
  disease incidence: < 50%
Helminthosporium teres
  disease incidence: < 20%
Alternaria solani
  disease incidence: < 20%

## CON=Cc1ccc(-c2ccccc2NC(=O)c2nn(C)nc2C(F)F)cc1 [Compound 3.067]
Erysiphe graminis
  infestation: < 20%
Botrytis cinerea [2]
  disease incidence: < 50%
Helminthosporium teres
  disease incidence: < 20%

## CCON=Cc1ccc(-c2ccccc2NC(=O)c2nn(C)nc2C(F)F)cc1 [Compound 3.070]
Erysiphe graminis
  infestation: < 20%
Botrytis cinerea [2]
  disease incidence: < 50%
Helminthosporium teres
  disease incidence: < 20%

## CC(C)CC(C)c1ccccc1NC(=O)c1nn(C)nc1C(F)F (centres unmarked) [Compound 3.219]
Puccinia recondita
  infestation: 0-5%
Podosphaera leucotricha
  infestation: < 20%
Venturia inaequalis
  infestation: < 20%
Erysiphe graminis
  infestation: < 20%
Botrytis cinerea [1]
  disease incidence: < 50%
Botrytis cinerea [2]
  disease incidence: < 50%
Helminthosporium teres
  disease incidence: < 20%
Uncinula necator
  disease incidence: < 20%

## CC(CC(C)(C)C)c1ccccc1NC(=O)c1nn(C)nc1C(F)F (centres unmarked) [Compound 3.273]
Puccinia recondita
  infestation: 0-5%
Erysiphe graminis
  infestation: < 20%
Botrytis cinerea [2]
  disease incidence: < 50%
Septoria nodorum
  disease incidence: < 50%

## Cn1nc(C(=O)Nc2ccccc2C2CC2C(C)(C)C)c(C(F)F)n1 (centres unmarked) [Compound 3.321]
Puccinia recondita
  infestation: 0-5%
Erysiphe graminis
  infestation: < 20%

## CCCCON=Cc1ccc(-c2ccccc2NC(=O)c2nn(C)nc2C(F)F)cc1 [Compound 3.407]
Erysiphe graminis
  infestation: < 20%
Helminthosporium teres
  disease incidence: < 20%

## CC(C)CC(C)c1sccc1NC(=O)c1nn(C)nc1C(F)(F)F (centres unmarked) [Compound 8.189]
Puccinia recondita
  infestation: 0-5%
Erysiphe graminis
  infestation: < 20%

## CC(C)CC(C)c1sccc1NC(=O)c1nn(C)nc1C(F)F (centres unmarked) [Compound 9.189]
Puccinia recondita
  infestation: 0-5%
Podosphaera leucotricha
  infestation: < 20%
Venturia inaequalis
  infestation: < 20%
Erysiphe graminis
  infestation: < 20%
Botrytis cinerea [2]
  disease incidence: < 50%
Septoria nodorum
  disease incidence: < 50%
Helminthosporium teres
  disease incidence: < 20%
Alternaria solani
  disease incidence: < 20%
Uncinula necator
  disease incidence: < 20%

## CC1CC(C)(C)c2cccc(NC(=O)c3nn(C)nc3C(F)(F)F)c21 (centres unmarked) [Compound 20.017]
Puccinia recondita
  infestation: 0-5%
Botrytis cinerea [2]
  disease incidence: < 50%

## CC1CC(C)(C)c2cccc(NC(=O)c3nn(C)nc3C(F)F)c21 (centres unmarked) [Compound 21.017]
Puccinia recondita
  infestation: 0-5%
Erysiphe graminis
  infestation: < 20%
Helminthosporium teres
  disease incidence: < 20%
